# Tests used:
# HepG2 = assay: Cytotoxicity in HepG2 cells (alamarBlue, 72 h); details: calculated between HepG2 cells and intramacrophagic amastigotes
# Protocol: (§1) To this end, we calculated SIs from 16 preselected results from the ex vivo system. With this aim, dose–response curves were performed in duplicate across at least three independent experiments using RAW 264.7 mouse macrophages (as a model of host cells harboring amastigotes) and HepG2 (as a model for assessing systemic toxicity).
# (§2) To evaluate the safety of the selected compounds, two cell lines were employed: RAW 264.7 (a mouse macrophage-derived cell line) and HepG2 (a human hepatoma cell line). Furthermore, to determine the intestinal tolerance relevant to potential oral administration, mouse intestinal organoids were prepared.
# (§3) RAW 264.7 and HepG2 were routinely cultured under standard conditions. RAW 264.7 cells were maintained in RPMI medium (Gibco) supplemented with, 25 mM HEPES, 24 mM NaHCO3, 2 mM L-glutamine, mixture of antibiotics and 10% FBS. HepG2 cells were cultured in DMEM/F-12 (Gibco) and supplemented 10% of FBS. For cytotoxicity assays, 10,000 cells per well were seeded into 96-well plates and incubated overnight at 37 °C with 5% of CO2. Subsequently, 2-fold serial dilutions of the compounds were added and incubated for 72 h. Cell viability using the alamarBlue™ assay according to the manufacturer’s instructions, and fluorescence was measured with a Varioskan™ LUX microplate reader (ThermoFisher Scientific, Waltham, MA, USA). Non-linear regression analyses were performed using SigmaPlot^TM software (version 10.0) to calculate CC50. Data were obtained from at least three independent experiments performed in duplicate.
# RAW 264.7 = assay: Cytotoxicity in RAW 264.7 cells (alamarBlue, 72 h); details: calculated between RAW 264.7 cells and intramacrophagic amastigotes
# Protocol: as §1, §2, §3
Structure (SMILES),SI2 (HepG2),SI1 (RAW 264.7)
COc1ccc2c(C)c3[n+](cc2c1OC)CCc1cc2c(cc1-3)OCO2 [13-Methylberberine],37.7,>13.3
COc1ccc2c(c1OC)C(OC)N(C)c1c-2ccc2cc3c(cc12)OCO3 (stereo not shown) [Angoline],4.5,4.6
COc1ccc2c(c[n+](C)c3c4cc5c(cc4ccc23)OCO5)c1OC [Chelerythrine],3.4,3.4
c1c2c(cc3c1OCO3)-c1cc3ccc4c(c3c[n+]1CC2)OCO4 [Coptisine],>2.9,>2.9
COc1cc2c3c(cc4ccccc4c3c1OC)N(C)CC2 [Dehydronuciferine],–,>0.37
CN1Cc2c(ccc3c2OCO3)-c2ccc3cc4c(cc3c21)OCO4 [Dihydrosanguinarine],>4.7,5.4
CCOC1c2c(ccc3c2OCO3)-c2ccc3cc4c(cc3c2N1C)OCO4 (stereo not shown) [Ethoxysanguinarine],1.7,1.9
CC[C@@H]1[C@H]2CCCCN3[C@H]2[C@@H](C[C@H]3[C@@H]2C[C@H](C)C(=O)O2)[C@H]2[C@@H]1OC(=O)[C@H]2C [Neotuberostemonine],–,>1.6
c1c2c(cc3c1OCO3)-c1cc3cc4c(cc3c[n+]1CC2)OCO4 [Pseudocoptisine],>7.0,>7.0
C[n+]1cc2c3c(ccc2c2ccc4cc5c(cc4c21)OCO5)OCO3 [Sanguinarine],2.4,2.2
CC[C@@H]1[C@H]2CCCCN3[C@H]2[C@H](C[C@H]3[C@@H]2C[C@H](C)C(=O)O2)[C@@H]2[C@H]1OC(=O)[C@H]2C [Tuberostemonine],–,>1.0
